For this assay, the target named is T1, Sph1-VC (synphilin-1 fused in front of the C-terminal fragment of Venus) (human) (UniProt Q9Y6H5).
T1 sequence: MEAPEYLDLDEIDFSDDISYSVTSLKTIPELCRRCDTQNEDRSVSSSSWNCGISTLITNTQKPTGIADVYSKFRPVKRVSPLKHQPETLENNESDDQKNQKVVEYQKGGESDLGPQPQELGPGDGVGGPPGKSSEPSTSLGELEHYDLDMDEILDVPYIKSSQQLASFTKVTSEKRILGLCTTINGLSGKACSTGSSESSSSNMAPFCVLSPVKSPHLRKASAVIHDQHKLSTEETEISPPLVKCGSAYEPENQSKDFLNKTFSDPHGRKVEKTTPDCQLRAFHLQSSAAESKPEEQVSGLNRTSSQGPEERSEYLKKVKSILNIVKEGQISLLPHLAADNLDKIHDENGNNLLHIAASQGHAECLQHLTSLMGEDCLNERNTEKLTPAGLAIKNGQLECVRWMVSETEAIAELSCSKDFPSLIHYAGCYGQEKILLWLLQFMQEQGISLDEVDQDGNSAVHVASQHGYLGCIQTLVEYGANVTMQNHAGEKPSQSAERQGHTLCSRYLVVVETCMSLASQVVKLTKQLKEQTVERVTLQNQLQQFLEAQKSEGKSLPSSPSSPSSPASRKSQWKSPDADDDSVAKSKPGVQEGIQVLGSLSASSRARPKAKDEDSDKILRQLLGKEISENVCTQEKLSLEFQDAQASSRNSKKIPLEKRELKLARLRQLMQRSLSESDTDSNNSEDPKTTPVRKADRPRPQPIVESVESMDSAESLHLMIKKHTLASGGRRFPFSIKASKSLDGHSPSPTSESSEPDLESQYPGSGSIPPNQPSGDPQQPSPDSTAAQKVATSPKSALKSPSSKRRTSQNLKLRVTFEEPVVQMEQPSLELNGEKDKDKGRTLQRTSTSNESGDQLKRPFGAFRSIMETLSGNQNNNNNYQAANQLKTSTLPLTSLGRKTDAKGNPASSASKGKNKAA
As to the kind of experiment: split reporter.

These are yes or no findings as the source states them, for the method shown. Binding seen in cells or lysates may run through a third protein. Some results given as binding are weak or reduced against the parent protein; the word gives no strength. Sequences can lack the tags named with a protein.

B1: VN-Sph1 (synphilin-1 fused behind the N-terminal fragment of Venus) (protein, UniProt Q9Y6H5 1-919)
chain: T1 sequence
Turning to B1, the binding entry was “binds”.

These data come from doi:10.1101/2024.03.05.583522.
